# Test results reported in PMC9291665, “Discovery and SAR analysis of 5-chloro-4-((substituted phenyl)amino)pyrimidine bearing histone deacetylase inhibitors” (Journal of Enzyme Inhibition and Medicinal Chemistry, 2022).
# Legend:
# [1] = tested on: Hela nucleus extract containing a mixture of HDAC isoforms; experiment: HDAC enzyme inhibitory screening against Hela nucleus extract; format: biochemical; details: at concentration of 1.0 µM, mean of three experiments
# Experimental: The synthesised molecules were firstly screened against Hela nucleus extract containing a mixture of HDAC isoforms. […] The phenyl substitution led to decreased inhibitory activity, such as L14 and L22.
# All HDAC enzymes were purchased from BPS Bioscience. In short, 60 µL of recombinant HDAC enzyme solution was mixed with various concentrations of test compound (40 µL), and then incubated at 37 °C for 30 minutes. The reaction was terminated by adding 100 µL of imaging agent containing trypsin and trichostatin A (TSA). After standing for 20 min, the fluorescence intensity was measured at the excitation and emission wavelengths of 360 and 460 nm with a microplate reader. The inhibition rate was calculated from the fluorescence intensity readings of the test wells relative to the control wells, and the IC50 curve and value were determined by GraphPad Prism 6.0 software.
# [2] = tested on: K562 cells; experiment: In vitro antiproliferative assay (CCK-8), K562; format: cell-based; details: Homo sapiens
# Experimental: (§1) Compound L20 with good performances in both enzyme and K562 cell inhibitory tests were selected for further antiproliferative assay against various cell lines. K562, U266, U937, C6, Fadu, MDA-MB-231, MDA-MB-468, A549, A2780 and HepG2 cell lines were used in the cell-based anticancer evaluation of L20.
# (§2) The proliferation of cancer cells was tested by CCK-8 assay. Briefly, cells were seeded in 96-well plate with about 5 × 10^3 cells in each well. The cells were treated with tested compounds after 24 h of incubation. CCK-8 reagent ([…]) was added to each well after 72 h of incubation, and cells were incubated at 37 °C for 4 h. The light absorbance at 450 nm was measured by using an Opsys microplate reader (Dynex Technologies, Chantilly, VA, USA). Results are illustrated as percent of cell viability normalised to DMSO-treated control cells.
# [3] = tested on: U266; experiment: In vitro antiproliferative assay (CCK-8), U266; format: cell-based; details: Homo sapiens, U-266, CCK-8, 72 h
# Experimental: as §1, §2
# [4] = tested on: U937; experiment: In vitro antiproliferative assay (CCK-8), U937; format: cell-based; details: Homo sapiens, U-937, CCK-8, 72 h
# Experimental: as §1, §2
# [5] = tested on: C6; experiment: In vitro antiproliferative assay (CCK-8), C6; format: cell-based; details: Rattus norvegicus, CCK-8, 72 h
# Experimental: as §1, §2
# [6] = tested on: Fadu; experiment: In vitro antiproliferative assay (CCK-8), Fadu; format: cell-based; details: Homo sapiens, CCK-8, 72 h
# Experimental: as §1, §2
# [7] = tested on: A549; experiment: In vitro antiproliferative assay (CCK-8), A549; format: cell-based; details: Homo sapiens, CCK-8, 72 h
# Experimental: as §1, §2
# [8] = tested on: A2780; experiment: In vitro antiproliferative assay (CCK-8), A2780; format: cell-based; details: Homo sapiens, CCK-8, 72 h
# Experimental: as §1, §2
# [9] = tested on: HepG2; experiment: In vitro antiproliferative assay (CCK-8), HepG2; format: cell-based; details: Homo sapiens, CCK-8, 72 h
# Experimental: as §1, §2
structure (smiles),measurement,setting,value
"O=C(CCCCCCC(=O)Nc1ccccc1)NO [SAHA, Vorinostat, reference compound]",HDACs percentage inhibitory rate,[1],50.12 ± 0.74%
same,IC50,"[2]; CCK-8, 72 h",1960 ± 70 nM
same,inhibition at 1 µM,"[2]; at concentration of 1.0 µM, mean of three experiments, read-out: K562 percentage inhibitory rate",52.2 ± 0.74%
same,IC50,[3],190 ± 10 nM
same,IC50,[4],1210 ± 80 nM
same,IC50,[5],3220 ± 130 nM
same,IC50,[6],4120 ± 220 nM
same,IC50,[7],4220 ± 190 nM
same,IC50,[8],2540 ± 130 nM
same,IC50,[9],3970 ± 210 nM
